Results: PubChem BioAssay AID2417 (National Center for Advancing Translational Sciences (NCATS), 2010)
Among all 140,000 compounds or so, about 4,300 (3.1%) were called active. The inconclusive results got no clear call from the source; some entries with a clear call stand among them for comparison.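 Rule for the calls: active = readout at or below -70, meaning at least 70% loss of cells showing the perinucleolar compartment, a nuclear body marking cancer cells; inconclusive = readout between -30 and a set limit; inactive = the rest.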

Test: High Content Assay for Compounds that inhibit the Assembly of the Perinucleolar Compartment;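 note: plate controls were DMSO wells for no effect and camptothecin positive control wells for full effect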
Conditions: PC3M PTB-GFP, PNC prevalence imaging, 16 h; at 10 µM; active compounds read low
How it was run: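 Read-out is percentage of cells bearing a perinucleolar compartment, from automated 20x imaging of fixed, Hoechst-stained PC3M PTB-GFP cells. Cells were seeded 4 h, then exposed 16 h to compound (23 nl of library stock) in duplicate plates.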

Row | Compound | activity change (PNC), negative = inhibition
1 | COC(=O)C1=C(C)NC(C)=C(C(=O)OC)C1c1cc2cc(C)ccc2[nH]c1=O | inconclusive: -44.9%
2 | COc1ccccc1NCCC(=O)OCC(=O)NC1CCCCC1 | inconclusive: -35.6%
3 | CCCOc1ccc(C2/C(=C(/O)c3ccc(F)cc3)C(=O)C(=O)N2CCCN(C)C)cc1 (centres undefined) | inconclusive: -42.2%
4 | CN(C)c1ccc(N=Nc2ccccc2C(=O)OCC(=O)NC2CCCC2)cc1 | active: -115%
5 | Cc1ccc(S(=O)(=O)CNC(=S)c2ccc3ccccc3c2)cc1 | inactive: 66.8%
6 | CCn1c(Cc2c(C)[nH]c3ccccc23)nnc1SCC(=O)NCc1ccco1 | inconclusive: -41.6%
7 | CCOc1ccc(-c2noc(CCCC(N)=O)n2)cc1OC | inactive: 26%
8 | CC(Oc1ccccc1)C(=O)Nc1cccc(-c2nc3ccccc3[nH]2)c1 (centres undefined) | inactive: 32%
9 | CCc1nnc(NS(=O)(=O)c2ccc(NC(=S)NC(=O)c3ccc(OC)c(OC)c3)cc2)s1 | inconclusive: -59.6%
10 | COc1cccc(CNC(=O)c2ccc(S(=O)(=O)N3CCCC3)cc2)c1 | inactive: 39.7%
11 | COCCNC(=O)COc1ccc(Br)cc1Cl | inactive: 16.3%
12 | CCCN1CCN(C(=O)c2cccc3c2C(=O)N(CCOC)C3)CC1 | inconclusive: -42.1%
13 | CN1CCN(CCCCOc2ccc(F)cc2)CC1 | inconclusive: -41.8%
14 | CCOC(=O)c1sc(C)c2c1NC(c1ccc(N(C)C)cc1)NC2=O (centres undefined) | inconclusive: -36.1%
15 | Cc1ccc(OCc2nnc(SCC(=O)c3cccc([N+](=O)[O-])c3)n2C)cc1 | inconclusive: -46.1%
16 | CCOC(=O)C1CCN(C(=O)CCn2c(=O)[nH]c3ccsc3c2=O)CC1 | inconclusive: -30.7%
17 | COc1ccc(S(=O)(=O)NCC2CCC(C(=O)NCc3ccco3)CC2)cc1 (centres undefined) | inconclusive: -34.5%
18 | CCOC(=O)c1ccc(-n2c(C)nc3c(cnn3-c3ccccc3C)c2=O)cc1 | inconclusive: -38.6%
19 | CC(C)CC(=O)NC(=S)Nc1ccc(S(=O)(=O)N2CCN(C)CC2)cc1 | inconclusive: -34.5%
20 | CCOC(=O)c1[nH]c2cc(OC)c(OC)cc2c1NC(=O)CN1CCN(c2ccc(OC)cc2)C(C)C1 (centres undefined) | inconclusive: -53.8%
21 | CCc1ccc(C(=O)COC(=O)c2cc([N+](=O)[O-])ccc2NCCO)cc1 | inconclusive: -39%
22 | CN1CSC2=C(C#N)C(c3cccc(OCc4ccccc4)c3)CC(=O)N2C1 (centres undefined) | inactive: 27.3%
23 | CCOCc1c(C(=O)OCC(=O)Nc2ccc(C)c(S(=O)(=O)N(C)C)c2)oc2ccccc12 | inconclusive: -46.4%

In the list so far, three contain a furan ring, fused or not:
Row | Compound | activity change (PNC), negative = inhibition
6 | CCn1c(Cc2c(C)[nH]c3ccccc23)nnc1SCC(=O)NCc1ccco1 | inconclusive: -41.6%
17 | COc1ccc(S(=O)(=O)NCC2CCC(C(=O)NCc3ccco3)CC2)cc1 (centres undefined) | inconclusive: -34.5%
23 | CCOCc1c(C(=O)OCC(=O)Nc2ccc(C)c(S(=O)(=O)N(C)C)c2)oc2ccccc12 | inconclusive: -46.4%

Additional entries follow.

Row | Compound | activity change (PNC), negative = inhibition
24 | CCOC(=O)c1cn(-c2ccc(F)c(F)c2F)c2c(F)c(F)c(F)cc2c1=O | inconclusive: -30.6%
25 | CCCOC(=O)c1ccc(NC(=O)c2cnccn2)cc1 | inactive: -3.82%
26 | OC(Cn1cncn1)c1ccc(Cl)cc1 (centres undefined) | inconclusive: -40.5%
27 | COCCCN(C(=O)c1ccco1)c1nc(-c2cc(OC)ccc2OC)cs1 | inconclusive: -77.3%
28 | CC(=O)Oc1c(C)c(=O)n(C)c2ccccc12 | inconclusive: -43.7%
29 | CCCCC(c1nnnn1C1CCCC1)N1CCN(C(=O)c2ccco2)CC1 (centres undefined) | inconclusive: -43%
30 | Cc1cc(C)cc(Oc2ncnc3c2ncn3Cc2c(Cl)cccc2Cl)c1 | inconclusive: -36.6%
31 | Cc1nn2c(COc3ccc(NC(=O)c4ccccc4Cl)cc3)nnc2c2ccccc12 | inactive: 13.8%
32 | Cc1ccc(C)n1-c1ccc(C(=O)NC2CCN(Cc3ccccc3)CC2)cc1 | inconclusive: -73.8%
33 | CC1(C)CC2CC(C)(CN2C(=O)COC(=O)CNC(=O)c2ccc(Cl)c(Cl)c2)C1 (centres undefined) | inconclusive: -54%
34 | CCOc1ccccc1OCC(=O)Nc1ccc(N2CCCCC2)cc1 | inconclusive: -31.2%
35 | Cc1cnc(C(=O)OCC(=O)NCc2ccccc2)cn1 | inconclusive: -56.1%
36 | CC(C)CC(C(=O)Nc1ccc2c(c1)OCCO2)N1C(=O)c2ccccc2C1=O (centres undefined) | inconclusive: -37%
37 | CSc1nnc(Cn2c(=O)sc3ccccc32)n1C | inconclusive: -33.6%
38 | COc1ccc(CNC(=O)CN(c2ccc(OC)cc2)S(=O)(=O)c2c(C)nn(C)c2C)cc1 | inactive: 41.8%
39 | N=c1oc2ccccc2cc1-c1nc(-c2ccc(Cl)cc2)cs1 | inconclusive: -53%
40 | CCOc1ccc(/C=N/NC(=O)c2c(-c3ccccc3)noc2C)cc1 | inconclusive: -35.6%
41 | CCOC(=O)CC(C#N)c1cn(C)c2ccccc12 (centres undefined) | inconclusive: -33.6%
42 | CC(=O)O[C@H]1CSC[C@H]1NC(=O)c1ccccc1 | inconclusive: -49.9%
43 | O=C(/C=C/c1ccc([N+](=O)[O-])cc1)N1CCN(c2ccccc2F)CC1 | inconclusive: -32.7%
44 | CN(C)CCNc1nc2c(c(=O)[nH]c(=O)n2C)n1CC(O)COc1ccc(Cl)cc1 (centres undefined) | inactive: -26.8%
45 | C=CCNC(=O)Nc1ccc(OCC)cc1 | inconclusive: -33%
46 | CC1=CSC2=NC(=O)/C(=C\c3cccn3-c3ccc([N+](=O)[O-])cc3)C(=N)N12 | inconclusive: -49%

Row | Compound | activity change (PNC), negative = inhibition
47 | CCOC(=O)c1ccc2c(c1)C(=O)N(C1CCCCC1)C2=O | inactive: -8.68%
48 | COc1cc(-c2n[nH]c(=S)n2-c2cc(C(F)(F)F)ccc2Cl)cc(OC)c1OC | inactive: -5.77%
49 | O=C(c1ccccc1)N1CCOC12CCN(c1ncc(C(F)(F)F)cc1Cl)CC2 | inconclusive: -65.3%
50 | O=C(O)CCC(=O)Nc1ccccc1C(=O)Nc1ccccc1 | inconclusive: -32.1%
51 | COC(=O)[C@H](C)NC(=O)NC1CCCc2ccccc21 (some centres undefined) | inconclusive: -39.7%
52 | O=C(CSc1nc2ccccc2c(=O)[nH]1)c1cccs1 | inconclusive: -53.3%
53 | CN(C)S(=O)(=O)c1cccc(CSc2cccc[n+]2[O-])c1 | inconclusive: -76.3%
54 | COc1ccc(C2(C(=O)NC3CCCCC3)CCOCC2)cc1OC | inconclusive: -48.7%
55 | Cc1ccc2cc(/C=N/NC(=O)CN3CCOCC3)c(Cl)nc2c1 | inconclusive: -33.2%
56 | COc1ccc(NC(=O)CSc2c3c(nc4ccccc24)CCC3)c(OC)c1 | inactive: -12.5%
57 | CC(=O)c1c(C)[nH]c(C(=O)Nc2c(C)n(C)n(-c3ccccc3)c2=O)c1C | inconclusive: -44.9%
58 | CCn1c(SCC(=O)Nc2ccccc2C(=O)OC)nnc1-c1ccoc1C | inconclusive: -34.1%
59 | CCOC(=O)c1c(-c2ccc(C)o2)csc1NC(=O)COC(=O)c1ccc(NC(N)=O)cc1 | inconclusive: -58.9%
60 | CCOCCCNC(=O)CN1C(=O)/C(=C/c2ccccc2)Sc2ccccc21 | inactive: 18.9%
61 | COc1ccc(S(=O)(=O)N2CCC(C(=O)NCC3CCCO3)CC2)cc1 (centres undefined) | inconclusive: -39.5%
62 | CCOC(=O)CSc1nc2c(c(=O)[nH]c(=O)n2C)n1CCCc1ccccc1 | active: -108%
63 | Nc1c(CO)nnn1-c1ccccc1 | inactive: -10.4%
64 | COc1ccc(C(=O)c2oc3ccccc3c2NC(C)=O)cc1 | inconclusive: -68.9%
65 | COc1ccccc1N1CCN(Cc2ccc(Br)o2)CC1 | inactive: 12.4%
66 | Cc1nc(-c2cccc(S(=O)(=O)N3CCC(C)CC3)c2)cs1 | inconclusive: -50.6%
67 | C/C(=N\N=C1\NC(=O)CC(C(=O)O)S1)c1cccs1 (centres undefined) | active: -106%
68 | COc1ccc(NS(=O)(=O)c2ccc3c(c2)n(C)c(=O)n3C)cc1 | inactive: -10.2%
69 | CN(NC(=O)c1cccc(Cl)c1)c1nc(-c2ccccc2)nnc1C(F)(F)F | inactive: 3.36%

Row | Compound | activity change (PNC), negative = inhibition
70 | COc1ccccc1N1C(=O)CC(Sc2nccc(C)n2)C1=O (centres undefined) | inactive: -5.34%
71 | O=C(Nc1ccc(S(=O)(=O)Nc2ncccn2)cc1)c1ccc(Br)s1 | inconclusive: -36.3%
72 | Cc1cccc(C(=O)Nc2cccc(C(=O)N3CCOCC3)c2)c1 | active: -108%
73 | CC1=C(C(=O)Nc2ccccc2C)C(c2ccc(C)o2)N2C(=O)CSC2=N1 (centres undefined) | inconclusive: -69.5%
74 | COCCNC(=O)CN1c2ccccc2CC1C (centres undefined) | inconclusive: -54.5%
75 | CCCC(=O)Nc1sc(C(=O)OC)c(C)c1C(N)=O | inconclusive: -51.1%
76 | Cc1cc(-c2nn3c(-c4ccccc4)nnc3s2)c2ccccc2n1 | inconclusive: -36.1%
77 | Cc1c(/C=N/N2C(=O)C3C4C=CC(C4)C3C2=O)c2ccccc2n1C (centres undefined) | inconclusive: -34.8%
78 | CCOC(=O)N1CCC(NC(=O)C(Cc2ccccc2)NC(=O)C2CCCCC2)CC1 (centres undefined) | inconclusive: -33.5%
79 | CC(=O)C1=C(C)NC(SCc2ccc(C#N)cc2)=C(C#N)C1c1ccco1 (centres undefined) | inconclusive: -61.1%
80 | Nc1ccc2c(c1)C(=O)Cc1ccccc1S2 | inconclusive: -40%
81 | CC(=O)Nc1ccc(NC(=O)Cn2cc3c(n2)CCC(C)C3)cc1 (centres undefined) | inconclusive: -68.8%
82 | COc1ccccc1C(CNC(=O)c1ccc(S(=O)(=O)NCc2ccco2)cc1)N(C)C (centres undefined) | inconclusive: -36.4%
83 | COc1ccc(NS(=O)(=O)c2cc(C)ccc2OC)cc1OC | inactive: 20.1%
84 | CC(C)(C)Cc1cc(N)on1 | inconclusive: -37.6%
85 | O=C(CN1CCN(CCO)CC1)Nc1ccccc1 | active: -100%
86 | CCCc1ccc(-c2csc(NC(=O)Cc3cccs3)n2)cc1 | inconclusive: -79.8%
87 | CCC(C)(C(=O)NC1CCCCC1)N(C(=O)c1ccccn1)c1ccccc1 (centres undefined) | inactive: 30.1%
88 | CCOC(=O)C1CCN(Cc2ccc(F)cc2)CC1 | inconclusive: -44.3%
89 | CCCC(=NCCc1c(C)[nH]c2ccccc12)C1=C(O)CC(c2ccccc2)CC1=O (centres undefined) | inconclusive: -70.2%
